Data source: PubChem BioAssay AID1259308 (NCATS, 2017)
Aim: 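Candidate targets for better recombinant protein yield in mammalian cells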 (primary screen). Cell system: human HEK293 embryonic kidney cells stably expressing firefly luciferase (HEK-CMV-Luc2-Hygro). Knock-down reagent: single siRNA against human genes, 0.8 pmol siRNA per well. Timing: 72 h. Measurement: 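Reporter luminescence and viable-cell signal on separate replicate plates, given as percent of non-targeting control and median/MAD z-scores, plus per-cell luciferase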. Direction: total luciferase, z-score: higher = more reporter protein produced. Rule for the call: 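An siRNA counts as active if its total luciferase robust z-score exceeds 3; genes with two or more such siRNAs out of three were retested with fresh siRNAs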. Calls: active = raised luciferase; inactive = no rise.
Shown is an unselected part of about 59,000 deposited reagents. In the full data, about 1,510 (2.6%) are marked active. 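Calls use total luciferase alone and ignore viability, so some active siRNAs may act by altering cell number.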 A number with no mark means an inactive call. Reagents against one gene are numbered here. Further read-outs or replicates are left out here. No sequences are given here.

total luciferase, z-score, by gene knocked down and reagent
DIP2C: #1 0.442; #2 0.162; #3 -0.775
SLC6A9: #1 -0.266; #2 -1.47; #3 0.286
GJC3: #1 2.29; #2 3.61 (active); #3 0.544
ZBTB39: #1 -0.984; #2 2.89; #3 3.85 (active)
CREB3L3: #1 1.15; #2 -0.236; #3 1.89
C1orf50: #1 0.753; #2 0.909; #3 0.229
SCGB1D4: #1 1.44; #2 0.134; #3 0.155
LZTFL1: #1 -0.432; #2 0.597; #3 2.57

4 consecutive entries from above, quoted:
total luciferase, z-score, by gene knocked down and reagent
DIP2C: #1 0.442; #2 0.162; #3 -0.775
SLC6A9: #1 -0.266
